Reference: paper PMC8888459
These are yes or no findings as the source states them, for the method shown. Binding can be weak; no strength is given. Tags and fused reporters may be left off the sequences shown.

Tests used:
[1] = target: T1, Yah1-GST fusion protein (S. cerevisiae) (UniProt Q12184); experiment: pull-down; GST-tagged Yah1 bait (2.5 μM) incubated with NIA (5 μM or increasing) and/or Isu1 (7.5 μM) in buffer PD (40 mM Hepes–KOH pH 7.5, 5% glycerol, 100 mM KCl, 1 mM DTT, 10 mM MgCl2) 15 min at 25 °C; glutathione agarose 1 h at 4 °C; SDS-PAGE, InstantBlue, densitometry corrected for binding to GST; aerobic (Yah1 cluster oxidised); both purified
T1 sequence: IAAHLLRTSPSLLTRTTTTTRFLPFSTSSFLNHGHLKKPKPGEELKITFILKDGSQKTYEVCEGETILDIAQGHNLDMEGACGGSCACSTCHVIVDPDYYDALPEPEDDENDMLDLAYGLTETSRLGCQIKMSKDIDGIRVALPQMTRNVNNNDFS

[2] = target: T1, Yah1-GST fusion protein (S. cerevisiae); experiment: pull-down; competition: Yah1^GST (2.5 μM) with NIA (5 μM), with or without Isu1Sc or Isu1Ct (7.5 μM), then Yfh1 WT or DE/KK added (12.5 μM or increasing concentrations); glutathione resin; densitometry, amount without Yfh1 set as 100%; buffer PD; both purified
[3] = target: T1, Yah1-GST fusion protein (S. cerevisiae); experiment: BLI; Yah1^GST immobilised on anti-GST biosensors; analytes NIA (10 μM) alone, Isu1 (10 μM) alone or both; buffer BLI (40 mM HEPES–KOH pH 7.5, 5% glycerol, 100 mM KCl, 1 mM DTT, 10 mM MgCl2, 0.05% Triton X-100); room temperature; aerobic (Yah1 cluster oxidised); fits with the 2:1 heterogenous ligand model; both purified
[4] = target: T2, Yfh1-GST fusion protein (S. cerevisiae) (UniProt Q07540); experiment: pull-down; competition: Yfh1^GST (2.5 μM) with NIA (5 μM) and Isu1Ct (7.5 μM), then Yah1 WT (increasing concentrations, 50 μM) or Yah1(DD/KK) (50 μM) added; glutathione resin; densitometry, amount without Yah1 set as 100%; buffer PD; both purified
T2 sequence: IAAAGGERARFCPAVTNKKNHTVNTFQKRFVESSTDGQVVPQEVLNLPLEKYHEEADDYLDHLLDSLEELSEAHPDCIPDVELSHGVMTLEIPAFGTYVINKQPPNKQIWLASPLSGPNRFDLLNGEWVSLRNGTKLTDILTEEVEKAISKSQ

[5] = target: T2, Yfh1-GST fusion protein (S. cerevisiae); experiment: BLI; competition: Yfh1^GST on anti-GST sensors, loaded with NIA (10 μM) and Isu1Ct (10 μM), dissociation in solutions containing Yah1 WT (increasing concentrations, 40 μM) or Yah1(DD/KK) (40 μM); buffer BLI, room temperature; both purified
[6] = target: T1, Yah1-GST fusion protein (S. cerevisiae); experiment: BLI; competition: Yah1^GST on anti-GST sensors, loaded with NIA (10 μM) and Isu1Ct (10 μM), dissociation in solutions containing Yfh1 WT (increasing concentrations) or Yfh1(DE/KK) (12.5 μM); buffer BLI, room temperature; both purified

binding [1]	binding [2]	binding [3]	binding [4]	binding [5]	binding [6]	Substance
no binding (tested: 7.5 μM)						Isu1 ortholog of C. thermophilum
binds	binds	binds	binds	binds	binds	NIA–Isu1 complex with C. thermophilum Isu1
